Values from PubChem BioAssay AID652243 (Drosophila RNAi Screening Center, 2013)

- Screen: 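Knock-downs that decrease or increase androgen receptor reporter signal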 (primary screen)
- System: Drosophila S2R+ cells
- Reagent: long dsRNA against Drosophila genes
- Duration: 72 h (48 h, then 24 h hormone)
- Treatment: synthetic androgen R1881 at 10 nM for 24 h
- Measurement: 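Firefly light from an androgen-responsive reporter and Renilla control light per well, raw and unnormalised, for each of two replicates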
- Scale: firefly reporter light: higher = more light from androgen-responsive reporter; Renilla control light: higher = more constitutive control signal (cell number, transfection)
- Call rule: 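Hit when the log firefly-to-Renilla ratio dropped or increased by a fixed fold versus the mean of GFP or LacZ controls across duplicate plates; lowering cut given as 1.5 and as 3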
- Calls: active = hit: reporter lowered or raised; inactive = no hit
In all, the deposit lists about 24,000 reagents; below is an unselected part of those with a known target gene and a result. In the full data, 246 (1%) were called active. 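Plates not normalised; calls are printed but the firefly/Renilla ratio behind them is not deposited; fold cut for lowering reported inconsistently.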 The raw values are shown without normalisation. No sequences are given here. The record does not give: the amount of reagent.

gene	amplicon	firefly reporter light, replicate 1	firefly reporter light, replicate 2	Renilla control light, replicate 1	Renilla control light, replicate 2	activity call
CG7706	DRSC16295	50116	97351	5.52e5	4.05e5	inactive
CG7706	DRSC26375	5.54e5	4.01e5	8.37e5	4.48e5	inactive
lectin-29Ca	DRSC02635	2.40e5	2.09e5	2.31e6	1.36e6	inactive
CG12360 (retired record)	DRSC14505	85625	1.03e5	1.22e6	1.50e6	inactive
CG16853	DRSC01877	1.60e5	1.79e5	1.08e6	1.16e6	inactive
Hey (Hairy/E(spl)-related with YRPW motif)	DRSC23030	4.91e5	6.72e5	1.31e6	1.55e6	inactive
CG13955	DRSC06443	2.85e5	2.97e5	1.91e6	1.82e6	inactive
ocn (ocnus)	DRSC17020	2.87e5	1.85e5	2.57e6	2.80e6	inactive
Lamtor1 (Late endosomal/lysosomal adaptor, MAPK and MTOR activator 1)	DRSC10183	3.11e5	2.86e5	2.84e6	3.02e6	inactive
CG12517	DRSC02173	1.63e5	1.48e5	9.05e5	1.09e6	inactive
geminin	DRSC04984	1.00e5	1.07e5	1.70e6	1.33e6	inactive
geminin	DRSC29794	1.55e5	1.68e5	6.81e5	7.13e5	inactive
Gasz	DRSC06829	1.22e6	3.00e5	1.04e6	5.26e5	inactive
Gasz	DRSC27833	2.56e5	1.74e5	3.06e5	5.66e5	inactive
ru (roughoid)	DRSC08258	36220	47200	9.25e5	8.95e5	inactive
ru (roughoid)	DRSC28529	1.84e5	3.18e5	6.67e5	1.24e6	inactive
CG16779	DRSC15153	1.14e5	1.78e5	2.74e6	1.95e6	inactive
key (kenny)	DRSC04285	1.06e6	6.80e5	1.29e6	1.24e6	inactive
key (kenny)	DRSC36978					inactive
CG4363	DRSC04465	2.92e5	2.72e5	1.81e6	1.49e6	inactive
CG14011	DRSC02343	1.26e5	1.02e5	1.62e6	1.22e6	inactive
CG14011	DRSC27954	6.16e5	5.23e5	2.49e6	1.34e6	inactive
CG9175	DRSC03153	4.55e5	6.53e5	1.95e6	1.65e6	inactive
CG34228	DRSC38878	6.03e5	6.39e5	1.41e6	1.76e6	inactive
Tusp	DRSC15838	1.39e5	1.88e5	2.27e6	3.04e6	inactive
CG8100	DRSC10961	1.73e5	1.74e5	1.58e6	1.30e6	inactive
Hex-t2 (Hexokinase testis 2)	DRSC22517	3.12e5	6.51e5	2.84e5	3.51e5	inactive
Hex-t2 (Hexokinase testis 2)	DRSC28247	7.85e5	7.93e5	1.08e6	1.74e6	inactive
CG13056	DRSC09937	2.66e5	2.30e5	2.93e6	1.79e6	inactive
CG13056	DRSC29419	6.53e5	7.65e5	1.56e6	1.56e6	inactive
dbe (dribble)	DRSC00811	6.85e5	1.03e6	1.64e6	1.80e6	inactive
Cpr47Eb (Cuticular protein 47Eb)	DRSC06345	2.01e5	1.87e5	1.55e6	1.72e6	inactive
arm (armadillo)	DRSC18738	1.28e5	1.15e5	7.07e5	6.78e5	inactive
arm (armadillo)	DRSC39139	5.70e5	6.32e5	1.71e6	1.54e6	inactive
CG2898	DRSC18238	3.28e5	4.13e5	2.54e6	3.81e6	inactive
Sfxn1-3 (Sideroflexin 1/3)	DRSC12183	51225	54829	1.69e6	1.18e6	inactive
Csgalnact (Chondroitin sulfate N-acetylgalactosaminyltransferase)	DRSC06228	3.12e5	2.12e5	1.71e6	1.29e6	inactive
ktub (king tubby)	DRSC04551	8.65e5	9.82e5	1.98e6	1.90e6	inactive
wds (will die slowly)	DRSC18852	2.65e5	4.01e5	2.13e6	2.63e6	inactive
Acp26Ab (Accessory gland protein 26Ab)	DRSC01856	1.69e5	2.51e5	1.68e6	2.47e6	inactive
Acp26Ab (Accessory gland protein 26Ab)	DRSC28398	3.11e5	8.26e5	6.43e5	1.30e6	inactive
CG14354	DRSC14817	1.11e5	1.31e5	1.91e6	1.66e6	inactive
CG14641	DRSC12227	63019	48577	6.54e5	3.91e5	inactive
CG14641	DRSC26839	7.67e5	5.09e5	8.61e5	4.35e5	inactive
CG3746	DRSC04412	2.84e5	3.60e5	2.10e6	2.00e6	inactive
CG3746	DRSC30050	1.21e6	1.06e6	1.54e6	1.68e6	inactive
Prosalpha3T (Proteasome alpha3 subunit, Testis-specific)	DRSC15226	1.40e5	1.37e5	2.35e6	2.58e6	inactive
CG33912	DRSC37815	4.36e5	4.88e5	1.08e6	1.11e6	inactive
Delta	DRSC16648	2.46e5	2.68e5	2.57e6	2.93e6	inactive
Delta	DRSC24112	3.46e5	2.90e5	4.29e5	4.31e5	inactive
Est-Q (Esterase Q)	DRSC11835	35968	49600	3.20e5	2.43e5	inactive
CG11298	DRSC04100	1.04e5	1.61e5	1.23e6	1.74e6	inactive
CG6126	DRSC15971	68554	76467	3.30e5	5.19e5	inactive
Prp4k (Pre-mRNA processing factor 4 kinase)	DRSC08144	6.47e5	8.52e5	1.53e6	1.69e6	active
Prp4k (Pre-mRNA processing factor 4 kinase)	DRSC27510	1.96e5	2.05e5	4.64e5	8.75e5	inactive
Prp4k (Pre-mRNA processing factor 4 kinase)	DRSC37043					inactive
CG8306	DRSC07141	3.72e5	4.83e5	4.18e5	5.39e5	inactive
CG8306	DRSC24656	1.09e6	9.47e5	1.25e6	1.42e6	inactive

Look-ups from the list.
For “firefly reporter light, replicate 2”, CG8100 [DRSC10961] is entered as 1.74e5
CG13955 [DRSC06443], activity call = inactive
For “firefly reporter light, replicate 1”, CG8306 [DRSC07141] has 3.72e5
Under “firefly reporter light, replicate 1”, Lamtor1 (Late endosomal/lysosomal adaptor, MAPK and MTOR activator 1) [DRSC10183] is entered as 3.11e5
